From PubChem BioAssay AID328 (DTP/NCI, 2004) come the findings set out here.

The list does not hold the whole screen: it gathers tests that were run many times, whatever their T/C, doses with no T/C, and many T/C values between a quarter and a half above the control. Further doses and runs are listed elsewhere. T/C gives the treated animals as a percentage of the vehicle group. Some doses have a count of surviving animals in place of a T/C: the source files T/C as zero there, which appears to mark a toxic dose or a test without result, not a measured value. Some survivor counts are full or nearly so, which does not show that the dose was tolerated: survival well below the control is almost never listed, so the zero probably covers shortened survival too. Counts of survivors are from the toxicity check (mostly the fifth day) where no day follows; animals may have died later. Schedule codes are those of the source, read here as Q, the interval in days (D) or hours (H), X, the number of doses. Where survival is the endpoint, the PubChem record calls one and a half times the control and up active, and a quarter to a half above the control has no call in these data; cut-offs in other NCI protocols can differ. Some T/C values carry the count of animals alive at the toxicity check (mostly the fifth day); where none is given, no animal had died by that day. Some entries hold several experiments; the results are listed from low to high.

The experiment relates to BDF1 mice, P388 leukemia ip, median survival T/C. In words: NCI In Vivo Anticancer Drug Screen. Data for tumor model P388 Leukemia (intraperitoneal) in B6D2F1 (BDF1) mice. The following applies: T/C endpoint: median survival time, higher T/C = longer survival. The procedure, abridged: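 Vehicle-dosed animals serve as the reference; survival of compound-dosed, tumour-implanted mice is divided by it.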

Where [1] appears, read: dose: 50.0 mg/kg/injection, schedule: Q01DX009 (ip), vehicle: saline with Tween-80.
Setting [2] is: dose: 100.0 mg/kg/injection, schedule: Q01DX009 (ip), vehicle: saline with Tween-80.
[3] abbreviates: dose: 200.0 mg/kg/injection, schedule: Q01DX009 (ip), vehicle: saline with Tween-80.
Where [4] appears, read: dose: 300.0 mg/kg/injection, schedule: Q01DX009 (ip), vehicle: saline with Tween-80.
[5] abbreviates: dose: 400.0 mg/kg/injection, schedule: Q01DX009 (ip), vehicle: saline with Tween-80.
[6] abbreviates: dose: 12.5 mg/kg/injection, schedule: Q04DX003 (ip), vehicle: saline.
Where [7] appears, read: dose: 400.0 mg/kg/injection, schedule: Q04DX003 (ip), vehicle: saline with Tween-80.
Setting [8] is: dose: 110.0 mg/kg/injection, schedule: Q04DX003 (ip), vehicle: Klucel (hydroxypropylcellulose) (HPC).
Where [9] appears, read: dose: 165.0 mg/kg/injection, schedule: Q04DX003 (ip), vehicle: Klucel (hydroxypropylcellulose) (HPC).
Setting [10] is: dose: 50.0 mg/kg/injection, schedule: Q01DX005 (ip), vehicle: saline with Tween-80.

Turning to `CC12CCC3C4CCC(=O)C(O)=C4CCC3C1CCC2OC(=O)CCC1CCCC1` (stereo unspecified), the survivor count (dose: 200.0 mg/kg/injection, schedule: Q04DX003 (sc), vehicle: steroid suspending solution) is on record as 6 of 6.
For the molecule `CCOc1nc(S(=O)(=O)CC)ncc1C`, the survivor count is recorded as 6 of 6 under setting [1]; 5 of 6 under setting [2]; 6 of 6 under setting [3]; 5 of 6 under setting [4]; 3 of 6 under setting [5].
In the case of `CCCCCCC(O)CCCCCC`, the survivor count (dose: 400.0 mg/kg/injection, schedule: Q01DX009 (ip), vehicle: other) was 3 of 6.
Regarding `NC(=O)c1ccc(N)nc1`, the T/C was 130 % of control (dose: 8.25 mg/kg/injection, schedule: Q04DX003 (ip), vehicle: saline with Tween-80); 135 % of control (dose: 12.5 mg/kg/injection, schedule: Q04DX003 (ip), vehicle: saline with Tween-80); 128 % of control under setting [6]. In addition, the survivor count (dose: 8.25 mg/kg/injection, schedule: Q04DX003 (ip), vehicle: saline) was 6 of 6; the survivor count under setting [6] was 6 of 6; the survivor count (dose: 18.75 mg/kg/injection, schedule: Q04DX003 (ip), vehicle: saline) is 6 of 6.
Regarding `Nc1ncnc2c1cnn2CCCl`, the survivor count under setting [7] is 3 of 6.
As to `Cc1cc(C(=O)c2ccccn2)c2cccc(C(F)(F)F)c2n1`, the survivor count is, setting by setting: (dose: 25.0 mg/kg/injection, schedule: Q01DX009 (ip), vehicle: saline with Tween-80) 6 of 6; under setting [1], 6 of 6; under setting [2], 6 of 6; under setting [5], 5 of 6.
Take `CC(=O)Nc1ccc2c(c1)OCO2`: under setting [7], the survivor count is recorded as 3 of 6.
In the case of `CC(=O)OC12CC[N+]3(C)CCCCC3C1=Nc1ccccc12` (stereo unspecified), the survivor count is, setting by setting: under setting [1], 0 of 6; under setting [2], 0 of 6; under setting [3], 0 of 6.
For `COc1cc2c(cc1OC)C1=C(CC2)C2CCCN2CC1` (stereo unspecified), the survivor count (dose: 50.0 mg/kg/injection, schedule: Q01DX009 (ip), vehicle: saline) is listed as 5 of 6.
Turning to `Cc1ccc(S(=O)(=O)N/N=C/c2ccccc2)cc1`, the T/C (dose: 200.0 mg/kg/injection, schedule: Q04DX003 (ip), vehicle: Klucel (hydroxypropylcellulose) (HPC)) was 141 % of control.
As to `O=S(=O)(F)c1cccc(C[P+](c2ccccc2)(c2ccccc2)c2ccccc2)c1`, the T/C by setting is: (dose: 8.25 mg/kg/injection, schedule: Q01DX009 (ip), vehicle: Klucel (hydroxypropylcellulose) (HPC)) 131 % of control; (dose: 16.5 mg/kg/injection, schedule: Q01DX009 (ip), vehicle: Klucel (hydroxypropylcellulose) (HPC)) 130 % of control; (dose: 25.0 mg/kg/injection, schedule: Q01DX009 (ip), vehicle: Klucel (hydroxypropylcellulose) (HPC)) 125 % of control [5 of 6 alive]; under setting [8], 116, 120 [5 of 6 alive], 125, 140 % of control; under setting [9], 125 and 127 % of control. In addition, the survivor count is reported as 4 of 6 (dose: 55.0 mg/kg/injection, schedule: Q01DX009 (ip), vehicle: Klucel (hydroxypropylcellulose) (HPC)); 4 of 6 under setting [8]; 4 of 6 under setting [9]; 5 of 6 (dose: 170.0 mg/kg/injection, schedule: Q04DX003 (ip), vehicle: Klucel (hydroxypropylcellulose) (HPC)).
As to `C1=C(C2=C[P+](c3ccccc3)(c3ccccc3)C=C(c3ccccc3)O2)OC(c2ccccc2)=C[P+]1(c1ccccc1)c1ccccc1`, the survivor count is 2 of 5 under setting [10]; 0 of 5 (dose: 100.0 mg/kg/injection, schedule: Q01DX005 (ip), vehicle: saline with Tween-80); 0 of 5 (dose: 200.0 mg/kg/injection, schedule: Q01DX005 (ip), vehicle: saline with Tween-80).
For `OC12CCC[N+]1(Cc1ccccc1)CCC2` (stereo unspecified), the survivor count (dose: 50.0 mg/kg/injection, schedule: Q01DX010 (ip), vehicle: carboxymethylcellulose (CMC)) is listed as 6 of 6 and the survivor count (dose: 100.0 mg/kg/injection, schedule: Q01DX010 (ip), vehicle: carboxymethylcellulose (CMC)) is 3 of 6.
On to `CCCCCCCCCCCCO[P+](=O)OCCCCCCCCCCCC`, for which the survivor count was 4 of 6 (dose: 100.0 mg/kg/injection, schedule: Q04DX003 (ip), vehicle: saline sonified) and 5 of 6 under setting [4]. The T/C (dose: 132.0 mg/kg/injection, schedule: Q01DX009 (ip), vehicle: saline with Tween-80) was 125 % of control [5 of 6 alive] and the T/C under setting [3] is 125 % of control.
For the molecule `COc1cc(-c2ccc(N=Nc3c(O)c(C(=O)Nc4ccccc4OC)cc4ccccc34)c(OC)c2)ccc1N=Nc1c(O)c(C(=O)Nc2ccccc2OC)cc2ccccc12`, the survivor count under setting [10] is recorded as 5 of 5.
On to `CC[n+]1cccc(NC(=O)c2ccc(NC(=O)c3ccc(C(=O)Nc4ccc(C(=O)Nc5ccc[n+](CC)c5)cc4)cc3)cc2)c1`, for which the T/C reads like this: (dose: 0.66 mg/kg/injection, schedule: Q04DX003 (ip), vehicle: saline) 126 % of control; (dose: 1.0 mg/kg/injection, schedule: Q04DX003 (ip), vehicle: saline) 133 % of control; (dose: 1.5 mg/kg/injection, schedule: Q04DX003 (ip), vehicle: saline) 133 % of control. The survivor count was 0 of 6 (dose: 100.0 mg/kg/injection, schedule: Q01DX009 (ip), vehicle: saline sonified); 0 of 6 (dose: 200.0 mg/kg/injection, schedule: Q01DX009 (ip), vehicle: saline sonified); 0 of 6 (dose: 400.0 mg/kg/injection, schedule: Q01DX009 (ip), vehicle: saline sonified).
As to `COC1(OC)OC(c2ccccc2)=C(C#N)C(/C=C\c2ccccc2)C1(OC)OC` (stereo unspecified), under setting [2], the survivor count was 6 of 6.
With `CN(C)c1ccc(C=C(C#N)C#N)cc1`, the survivor count (dose: 100.0 mg/kg/injection, schedule: Q01DX009 (ip), vehicle: Klucel (hydroxypropylcellulose) (HPC)) is 3 of 6.
